Measurements from PubChem BioAssay AID1347426 (Functional Genomics Laboratory (NCATS/FGL), 2020).
The whole screen tested about 31,000 sequences, of which about 1,400 (4.5%) were called active.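 Rule for the calls: active = median seed-adjusted z-score above 1 or below -1; inactive = the rest.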 Some of the results follow.

Assay: Novel Modifiers of Survival Motor Neuron (SMN) Protein: Gene Identification via Genome-wide siRNA Screen;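 note: luminescence tracks full-length SMN protein made from the SMN2 reporter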
Conditions: HEK293T SMN2-luciferase reporter, siRNA knockdown, 72 h; actives lie on both sides
Summary of the method: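 siRNA screen, 10418 genes ×3 siRNAs; 1 pmol/well, lipid reverse transfection into HEK293T SMN2-luc reporter line. 72 h, 37 °C, 5% CO2; ONE-Glo readout. Data: neg-ctrl normalized, log10, MAD; hit = MAD >1.0 or < -1.0.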

Row | Sequence | median seed-adjusted z-score
1 | CCCAUGACAUGCUUCGUAATT against UBE3B | inactive: 0.0972
2 | AGAUAAUGAUUUUUCCAGATT against LPCAT1 | inactive: -0.995
3 | ACAUCUCCGAAAUCGCCUATT against SLC2A8 | inactive: -0.105
4 | CGAUCCGGGUUUCGAAAAATT against TRIO | inactive: 0.42
5 | GGAAUUUCCCAGCUACCCATT against CCBE1 | inactive: 0.964
6 | CCGGAGAUGGAUGAAUCUATT against ICAM5 | active: -1
7 | GAGUUGAUAGGAUAGAUGATT against SEC23IP | inactive: -0.0226
8 | GGAUUACAGCAGGUGCAGATT against MED8 | active: -1.61
9 | CAGUUCCAGAUGAACCAUATT against DHDDS | inactive: 0.0122
10 | CAGUUAAGAUGUCACCGUATT against ZNF417 | inactive: 0.0205
11 | GACCAGAUCUUUAAUCUCATT against RGS10 | inactive: 0.304
12 | GCCCAGUCUUGAUUACUGATT against ARPM1 | inactive: -0.0251
13 | GCAUCGAAAUGGUGUAAUUTT against ASCC1 | inactive: -0.00853
14 | CCUUUAAUAUCGACCGCAATT against KCNC4 | inactive: -0.433
15 | GGGUGAGAAUGUUACAAUUTT against FUS | inactive: 0.92
16 | GAGCUUAAGUGAAGUCCUATT against ZSCAN29 | inactive: 0.193
17 | GUGUGGAUCUGGUAAUACATT against DNM3 | inactive: 0
18 | CGUCGGAUGUGCUACUUGATT against COPG | inactive: 0.175
19 | GGAUCCAACUCGACAACAATT against SSBP2 | inactive: 0
20 | AGCUUCCAGUCACAGCAUATT against PAX5 | inactive: 0.285
21 | GGCUGAGAUGCGUCGUAAATT against ARCN1 | active: -1.25
22 | CCCUGUCUAUAAUUUCUUUTT against DGCR8 | inactive: -0.266

Some of the entries above, set out differently:

| Row | Sequence | median seed-adjusted z-score |
| --- | --- | --- |
| 19 | GGAUCCAACUCGACAACAATT against SSBP2 | inactive: 0 |
| 20 | AGCUUCCAGUCACAGCAUATT against PAX5 | inactive: 0.285 |

Further results.

Row | Sequence | median seed-adjusted z-score
23 | CUUCCUGUAUUGCUAUUAATT against ACTR3 | inactive: -0.7
24 | GGGCAAUGCCUAGAAGAAUTT against PDE6D | inactive: 0
25 | GAACUUCAAUAGAUCAGUUTT against GSPT1 | inactive: -0.761
26 | AACCAUUUCUCAAUCCUUATT against ZNF43 | inactive: 0.29
27 | GGUGGGUCUUUUUCGCAAATT against STARD13 | inactive: -0.0337
28 | GAAUAAGUGAAACACGGAATT against MAP3K7IP2 | inactive: 0.0195
29 | CAUGUCUUCUGAAUAGCAATT against MOBKL3 | inactive: 0.575
30 | GUUUGCAUGUGACAAUGGATT against PPTC7 | inactive: 0.49
31 | GUUCAGCACUCAUUAGACATT against ZNF17 | inactive: 0.579
32 | UCGUGGUUGUUAAUUUGAATT against CSNK1E | inactive: -0.796
33 | AAAUCUUGGUGCUUCCAUATT against SERPINB6 | inactive: 0.0155
34 | GAAUUAACUUCAUGGUGAATT against PPM1K | inactive: 0.154
35 | GCGAAUUGGGAAUCAGUAATT against POLR3F | inactive: 0
36 | GCCCAUCCUGGUCAUGUUATT against COX8A | inactive: -0.0749
37 | GGACCUUCGUAGCAUUGCATT against E2F1 | inactive: -0.211
38 | GGACAUGAGAGGAACAGUUTT against ADCY1 | inactive: 0.154
39 | AGUUCGCCGUGGUGCACAATT against NAT8L | inactive: 0
40 | GGAUCGAAGGAGACAAACUTT against RBP7 | inactive: 0.0709
41 | GGAGUUUAUGAAUCAGCUATT against KLC1 | inactive: -0.0912
42 | GAAUUGGGCUUGUUGAUAUTT against KCNB2 | active: 1.22
43 | AGCUCACCCUGAAGAACAATT against LIMS2 | inactive: 0
44 | CGAGCAAAGUUCUGGGUGATT against RAB24 | inactive: 0.123

Looked up one by one from the entries so far, five records:
Row | Sequence | median seed-adjusted z-score
38 | GGACAUGAGAGGAACAGUUTT against ADCY1 | inactive: 0.154
24 | GGGCAAUGCCUAGAAGAAUTT against PDE6D | inactive: 0
29 | CAUGUCUUCUGAAUAGCAATT against MOBKL3 | inactive: 0.575
37 | GGACCUUCGUAGCAUUGCATT against E2F1 | inactive: -0.211
44 | CGAGCAAAGUUCUGGGUGATT against RAB24 | inactive: 0.123

Later entries:

Row | Sequence | median seed-adjusted z-score
45 | GGACCUCGUUAUCUAUCUUTT against SLC35A3 | inactive: 0.321
46 | CAUCAUCUCUGGAACUCUUTT against ALAS2 | inactive: -0.142
47 | GGGCAUGUCUUAACGAAGATT against DMRT2 | inactive: -0.344
48 | CACCCUCGCAGUCUCCAAATT against HSPA12B | inactive: -0.141
49 | CCUAGAAGUUUGUCACUGATT against COX6C | inactive: -0.0449
50 | AGGUGACCGGCUUCAAAAATT against SNX18 | inactive: 0
51 | GAGCAGCUGUAUAAGCUCATT against MAP3K6 | inactive: 0
52 | CUAGAAGAGACGAAACGAATT against ESCO1 | inactive: 0.755
53 | CGAGAUCGAGUUCAUCUUUTT against ACHE | inactive: 0
54 | GAGUUUGAGAAGACCCAGATT against BCAR1 | inactive: -0.469
55 | GCCUGUCGGUCAUUGAGAATT against AQP8 | inactive: -0.763
56 | CUUUAAUAAAGCUAGGAUATT against PPP1R14B | inactive: 0.205
57 | AGCACAGAAUUACACGUAUTT against MAN2B2 | inactive: 0.0555
58 | GGAACUGCUGCAUUAGAUATT against ITCH | inactive: 0.199
59 | GCUUCAGGAUGUGCCCAAATT against ENTPD2 | inactive: 0.0319
60 | GGUUUCUAAGGUAAACGGATT against JARID2 | inactive: 0.115
61 | GGGAUCUAGUGAAUAAACUTT against EIF2B4 | inactive: 0
62 | GGACCAUCUCGAACCACCATT against LIMD2 | inactive: 0.418
63 | GAGUUGAAACAGAGAUUUATT against 14-Sep | inactive: 0.227
64 | AGUCAGCACAGUCAAGUCATT against GPX6 | inactive: 0.35
65 | CUACCUGCUGAAUAACUAUTT against ALG12 | inactive: -0.401
66 | GCCGUGAUGUUGUCACUGATT against PPP2R5D | inactive: 0.848

Row | Sequence | median seed-adjusted z-score
67 | GGCUUUGCGGAGGAAGAAATT against CHMP4A | inactive: -0.209
68 | GUGUGGACUUUCAACCUGATT against DNAH9 | inactive: 0.656
69 | GCCGCUUCCACCAUACCUATT against RUNX3 | inactive: -0.489
70 | CUACCGAUGCUGAAAGACATT against PGM3 | inactive: -0.527
71 | GGGAAAAGCAAGUAGCUCUTT against SSX6 | inactive: -0.493
72 | GAAGGAGAUUUGCACAGGATT against CARM1 | inactive: 0.317
73 | UGAUAAGGAUAACAAGAGATT against CAMP | inactive: -0.622
74 | GCAUAACUUGAAUAGUACATT against AKAP11 | inactive: -0.0405
75 | GCUCAGAGAUGACACCGAATT against FAH | inactive: -0.0836
76 | CCAACCUAAUUAUGGAGGATT against PCDHGB4 | inactive: 0.176
77 | GCCCUAAAAGUGACCAUCATT against CCR9 | inactive: 0.16
78 | GCACCAUCACGGAUGUCCATT against EBI3 | inactive: -0.206
79 | GUACAACUCUGACAAGGGATT against TOPORS | inactive: 0.381
80 | CCAUUCACAUGGACUUUUUTT against CYP3A4 | inactive: 0.633
81 | CUAUGUAUUUGACAGCGAATT against GULP1 | inactive: -0.0337
82 | CGAUGAUCCUGACAAUGCUTT against OMD | inactive: 0
83 | GGUGUCACCCUGUGAAUUUTT against MAP1S | inactive: 0.0941
84 | GCGGAGGAGUUGAAUCGAATT against DDX43 | inactive: -0.452
85 | CCUGAGCCACGUUAUCUCGTT against HBQ1 | inactive: -0.578
86 | CUCUGAUAUUUGACCGGGATT against WDR64 | inactive: -0.25
87 | GGUUGUAGUUCACGGCUUATT against ZNF7 | inactive: 0
88 | GAACGAGUGAGAGAAUAUATT against TTC9C | inactive: -0.571

Row | Sequence | median seed-adjusted z-score
89 | CAGGAUAUCGAAUCCCUAATT against PPFIA2 | inactive: 0.176
90 | CCAUAGCCCGAGUGAUUGATT against CRYZL1 | inactive: 0.0481
91 | CAGUGAAGCUAUCAAGUUATT against PSMA8 | inactive: 0.407
92 | UCCUAGUCUCUAUCAUUAATT against LTC4S | inactive: 0
93 | GUCGAGUAUUCAUCCGAGATT against DHX57 | inactive: -0.138
94 | GAAUCUACCUUGCUGCUCATT against G6PC | inactive: -0.628
95 | GAGGAAAUCUCGGACCUUATT against MYH6 | inactive: 0
96 | GGCGCAAUGAUAAAUCUUATT against COL4A6 | inactive: 0.0681
97 | GCAUCGUCUCCUAUGGAAATT against CTSG | inactive: -0.47
98 | GAAGCACAAUAAACGGGUATT against HYOU1 | inactive: 0.0557
99 | CAACUUCAUGGUUCGAAAUTT against OTC | inactive: 0.496
100 | GGCAAUGACCGCUAAAGGATT against COX6B1 | inactive: -0.706
101 | CCAGAGACCCUGUUUAAGATT against KCNF1 | inactive: -0.19
102 | CCAUUGGAGCUUCACCGAATT against POLA1 | inactive: -0.317
103 | GUUGGGAACUGUCGACAAATT against EIF3F | inactive: -0.0214
104 | AGAUCUCGGUUGACCAACATT against KRT4 | inactive: 0.336
105 | GAGCGAAGGUCAUAAUACATT against MORC4 | inactive: 0.13
106 | CUCAGAGUGCAGAACCACATT against TRIM15 | inactive: 0.292
107 | GAGGCAAAGUGGUAUAUGATT against DPYS | inactive: -0.288
108 | CCUCAAUCUUGACAUAUAUTT against SKIP | inactive: 0.804
